In PubChem BioAssay AID493014 (National Center for Advancing Translational Sciences (NCATS), 2011):
This is one part of the list. Further columns of the screen follow, without active or inactive calls. The list favours compounds with an active or inconclusive main result. Potencies come from curve fits of mixed quality, noted in brackets.

Assay: qHTS Assay to Find Inhibitors of Chronic Active B-Cell Receptor Signaling
Conditions: ABC-DLBCL IkBa-CBG/CBR reporter, luminescence ratio (green luciferase fused to IkBa over red control in TMD8 lymphoma cells), 4 h
Outline: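 TMD8 ABC-DLBCL cells carrying doxycycline-inducible green luciferase fused to IkappaBalpha plus unfused red luciferase were exposed to compounds (up to 46 uM) for 4 hrs at 37C. Activity came from the overlap-corrected green/red luminescence ratio.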

[1] = measured here: CBR red luminescence, cell number
[2] = measured here: IkBa-CBG green luminescence

Compound	AC50 [1]	AC50 [2]
N#CC1(Cc2ccc(Cl)cc2)c2ccccc2C=CN1C(=O)c1ccccc1 (stereo not drawn)	0.82 µM [rising, full curve, poor fit]	–
COc1cccc(/C=N/Nc2ccccc2C(=O)O)c1O	2.24 µM [falling, full curve, poor fit]	–
CC(OC(=O)CSc1ccc([N+](=O)[O-])cc1)C(=O)NCc1ccccc1 (stereo not drawn)	13 µM [falling, single point]	–
Cc1cnc(C(=O)OCC(=O)c2cccc3ccccc23)cn1	23.1 µM [rising, single point]	–
CC(C)C(NC(=O)CSCc1ccc([N+](=O)[O-])cc1)C(C)C	2.31 µM [falling, full curve, poor fit]	–
COC(=O)[C@H](CC(C)C)NC(=O)Nc1ccccc1F	3.16 µM [rising, single point]	–
O=C(CCCn1ncn2c(cc3occc32)c1=O)NCc1ccccc1F	7.08 µM [falling, full curve, poor fit]	–
O=C(C[C@@H]1C/C=C/CC[C@H](Cc2ccc(F)cc2)C(=O)OC[C@@H](Cc2ccccc2)NC1=O)N[C@H](CO)Cc1ccccc1	13 µM [rising, partial curve, poor fit]	–
CCN1CCN(Cc2cc(=O)oc3ccc(Cl)cc23)CC1	0.501 µM [falling, partial curve, poor fit]	–
FC(F)(F)c1nc2ccccc2nc1N/N=C/c1ccc(Cl)cc1	1.12 µM [rising, full curve]	–
COC(=O)c1ccc(NC(=S)NCCc2ccccc2)cc1	0.326 µM [falling, full curve]	–
c1ccc(-c2nc(NCc3cccnc3)c3oc4ccccc4c3n2)cc1	3.16 µM [falling, full curve]	–
CN(C)c1nc(NCc2ccccc2)nc(N/N=C/c2cccc(Br)c2)n1	0.355 µM [rising, full curve, poor fit]	–
CC(=O)Nc1ccc(N2CCC(C)CC2)c([N+](=O)[O-])c1	15.8 µM [rising, partial curve, poor fit]	–
O=C(COc1ccc(Cl)cc1Cl)Nc1c(-c2cccs2)nc2ccccn12	29.1 µM [rising, single point]	–
O=C(COc1ccccc1Cl)Nc1cc(NC(=O)COc2ccccc2Cl)cc(C(=O)O)c1	2.82 µM [rising, partial curve, poor fit]	–
CCOc1cc(C(=O)OC(C)C(=O)Nc2ncc(Cl)cc2Cl)ccc1OCC(=O)N1CCOCC1 (stereo not drawn)	4.61 µM [rising, full curve, poor fit]	–
O=Nc1onc(-c2ccc([N+](=O)[O-])cc2)c1NO	17.8 µM [rising, single point]	22.4 µM [falling, single point]
CS(=O)(=O)c1ccc(Cl)c(NC(=O)CSc2n[nH]c(-c3cccs3)n2)c1	18.4 µM [rising, single point]	–
O=c1c2ccccc2ccc2ccccc12	7.31 µM [rising, partial curve, poor fit]	–
Cc1noc(C)c1COc1ccc(C(=O)OCC(=O)Nc2ccc3c(c2)OCO3)cc1	5.62 µM [rising, full curve, poor fit]	–
C=CCn1c(N)c(C(=O)OC(C)CC)c2nc3ccccc3nc21 (stereo not drawn)	3.98 µM [falling, partial curve, poor fit]	–

Whole records, quoted from the list.
O=C(CCCn1ncn2c(cc3occc32)c1=O)NCc1ccccc1F is listed as AC50 [1]: 7.08 µM [falling, full curve, poor fit]
O=C(COc1ccccc1Cl)Nc1cc(NC(=O)COc2ccccc2Cl)cc(C(=O)O)c1 is listed as AC50 [1]: 2.82 µM [rising, partial curve, poor fit]
COC(=O)c1ccc(NC(=S)NCCc2ccccc2)cc1 is listed as AC50 [1]: 0.326 µM [falling, full curve]

More results

Compound	AC50 [1]	AC50 [2]
CCOc1cc(N2CCOCC2)c(OCC)cc1NC(=O)C(C)Oc1ccccc1 (stereo not drawn)	11.6 µM [rising, partial curve]	–
Cc1ccc(C(=O)N/C(=C\c2ccccc2)C(=O)OCc2ccccc2)cc1	29.1 µM [falling, single point]	–
O=C(N/N=C\c1ccc(Sc2ccccn2)o1)c1cccc(Br)c1	35.5 µM [falling, single point]	–
C/C(=N\NC(=O)c1cccc2ccccc12)c1cccnc1	22.4 µM [falling, single point]	–
CCN(CC)c1ccc(/C=N/NC(=O)c2ccccn2)cc1	10 µM [falling, partial curve]	–
Cn1sc(=O)c2cc(S(=O)(=O)NC3CC3)ccc21	35.5 µM [rising, single point]	–
Cc1ccc(-n2c(SCC(=O)Nc3cccc(S(N)(=O)=O)c3)nc3ccccc32)cc1	14.6 µM [falling, single point]	–
COc1ccc(F)c(C2C(C#N)=C(N)Oc3n[nH]c(C(C)(C)C)c32)c1 (stereo not drawn)	32.6 µM [falling, single point]	–
c1ccc(-c2nnc(-c3ccccc3)nn2)cc1	0.112 µM [rising, full curve, poor fit]	–
Clc1c(-c2nnc3n2CCCCC3)sc2ccccc12	17.8 µM [falling, single point]	–
Cc1nnsc1-c1c(C(=O)Oc2ccccc2)c(C)nn1-c1ccccc1	35.5 µM [falling, single point]	–
CCN(C(=O)CSc1nncn1-c1ccccc1)C1CCS(=O)(=O)C1 (stereo not drawn)	1.64 µM [rising, partial curve, poor fit]	–
COc1ccc(OC)c(/C(C)=N/Nc2ccc(C(=O)O)cc2)c1	6.31 µM [falling, partial curve, poor fit]	–
Oc1c(Br)cc(Br)c(/C=N/n2c(-c3ccccc3)n[nH]c2=S)c1Br	20 µM [falling, partial curve, poor fit]	–
O=C(CN1CCN(S(=O)(=O)c2ccc(Cl)cc2)CC1)Nc1ccc2c(c1)OCO2	2.51 µM [falling, partial curve, poor fit]	–
Cc1ccc(C(=O)Oc2ccccc2N2C(=O)C3CCC(C)CC3C2=O)cc1 (stereo not drawn)	0.411 µM [rising, full curve, poor fit]	–
Cc1cc(F)ccc1S(=O)(=O)Nc1nc2ccccc2nc1Cl	2.82 µM [falling, full curve]	–
O=C(NCCc1ccc(O)cc1)c1ccc(Cl)cc1	10 µM [falling, partial curve]	–
COc1cccc(-c2cc(=O)c3cc(NC(C)=O)ccc3[nH]2)c1	18.4 µM [falling, single point]	–
Cc1cccc(NC(=O)COc2ccc(Br)cc2/C=N/O)c1	18.4 µM [falling, single point]	–
COc1ccccc1C(=O)NNC(=O)c1ccccc1	6.31 µM [falling, partial curve]	–
CCOC(=O)c1oc2cccc(OC(C)=O)c2c1C	0.631 µM [falling, full curve]	–

Compound	AC50 [1]	AC50 [2]
Cc1ccc(NC(=O)COc2ccccc2C#N)cc1S(=O)(=O)N1CCCCCC1	25.9 µM [falling, single point]	–
O=C(c1c(Cl)cccc1Cl)N1CCN(c2ncccn2)CC1	0.708 µM [rising, full curve, poor fit]	–
CCOC(=O)Nc1cc(C(=O)OC)ccc1C	18.4 µM [rising, partial curve]	10.3 µM [falling, partial curve, poor fit]
O=C(Cn1cccc1)N1CCc2ccccc21	2.51 µM [rising, full curve, poor fit]	–
CC(=O)c1ccc(S(=O)(=O)Oc2ccc(C(=O)O)cc2Cl)cc1	23.1 µM [falling, single point]	–
COc1ccc(C2=Nn3c(nnc3-c3ccccc3Cl)SC2)cc1OCC1CC1	2.31 µM [rising, full curve, poor fit]	0.731 µM [falling, full curve]
COc1ccc(CC(NC(C)=O)C(=O)N2CCN(C(=O)Nc3cccc(F)c3)CC2)cc1OC (stereo not drawn)	3.16 µM [falling, partial curve, poor fit]	–
N/C(=N\OC(=O)Cc1cccs1)c1ccc([N+](=O)[O-])cc1	0.0411 µM [rising, full curve, poor fit]	–
O=C(Nc1ccccn1)c1sc2cccc(F)c2c1Cl	3.98 µM [rising, full curve, poor fit]	–
O=C(N/N=C/c1ccccc1Cl)c1ccc(F)cc1	15.8 µM [falling, partial curve, poor fit]	–
O=S(=O)(c1ccc(Oc2ccccc2)cc1)N1CCOCC1	0.259 µM [rising, full curve]	–
CC(C)[C@H](NC(N)=O)C(=O)NNC(=O)COc1cccc(C(F)(F)F)c1	0.501 µM [rising, full curve, poor fit]	–
O=C(CO/N=C/c1ccccc1O)NNC(=O)c1ccccc1Cl	14.6 µM [rising, partial curve, poor fit]	11.6 µM [falling, partial curve, poor fit]
CCN1CCCC1CNS(=O)(=O)c1cc(Br)cc2c1N(C(=O)C1CC1)CC2 (stereo not drawn)	20.6 µM [rising, partial curve, poor fit]	–
Cc1cccc(Cn2ccc(N)n2)c1	25.1 µM [falling, single point]	–
O=C(Nc1ccc(C(F)(F)F)cc1)c1cc(S(=O)(=O)N2CCCc3ccccc32)ccc1F	3.98 µM [falling, full curve]	–
O=C(Nc1cccc2c1CCCC2)c1ccncc1	16.4 µM [rising, single point]	–
Cc1nn(-c2ccc3ccccc3c2)c(=O)c2ccccc12	6.31 µM [rising, single point]	–
COCCN(C(=O)COC(=O)CCc1c[nH]c2ccccc12)c1c(N)n(Cc2ccccc2)c(=O)[nH]c1=O	29.1 µM [falling, single point]	–
COCCNc1nc(N)c([N+](=O)[O-])c(Nc2ccc(F)cc2)n1	0.708 µM [rising, full curve, poor fit]	–
